According to the supplement of paper PMC3334620:
The full ranking holds about 33,000 sequences; the median of “E-score (-0.5 to 0.5)” is about -0.0059, and the highest 2% start at about 0.26. The list shows a part of the results.

The sequences below were run against T1, Cin5 (UniProt P40917) (assay: PBM E-score (8-mer binding enrichment) (E-score (-0.5 to 0.5)); higher = stronger / more preferred TF binding). Settings: protein concentration: 100 nM; construct: GST-full length.
T1 sequence: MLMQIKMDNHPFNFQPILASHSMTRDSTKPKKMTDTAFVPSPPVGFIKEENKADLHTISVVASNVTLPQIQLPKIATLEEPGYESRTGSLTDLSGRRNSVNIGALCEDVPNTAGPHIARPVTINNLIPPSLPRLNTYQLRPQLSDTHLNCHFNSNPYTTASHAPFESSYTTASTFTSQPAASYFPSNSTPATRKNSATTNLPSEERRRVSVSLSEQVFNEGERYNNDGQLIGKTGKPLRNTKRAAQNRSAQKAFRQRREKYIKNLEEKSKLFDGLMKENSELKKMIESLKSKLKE
Method in brief: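 Detection of bound protein used fluorescent anti-GST, with scans normalised by masliner. The proteins were GST-tagged yeast transcription factors applied at about 100-200 nM to universal all-10-mer Agilent arrays made double-stranded by primer extension. Each ungapped eight-base word, pooled with its reverse complement, was scored with an E-score from the Universal PBM Analysis Suite.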

Row | Sequence | PBM E-score
1 | AGGGCTAG | -0.243
2 | ACTATCCT | -0.0237
3 | AATCCCTA | 0.00972
4 | GTCCCTGA | -0.146
5 | AGGTGGGG | -0.0141
6 | CGTCACCC | -0.0312
7 | CATAGCGA | -0.123
8 | CACTTTCG | 0.0452
9 | CACAGTTC | 0.0834
10 | AAAATGGC | 0.158
11 | GTCCAGAA | -0.0545
12 | GAGATGGC | 0.113
13 | CCGTCCCG | -0.238
14 | ATGACTGG | -0.0808
15 | GAGCTATC | -0.106
16 | CCTTATGC | 0.0538
17 | GCGGCGGA | -0.068
18 | TCTTACCA | -0.0191
19 | TGCATTAA | 0.0889
20 | AGGGACGA | -0.132
21 | CAAGTAGA | 0.00811
22 | CCGGCAAC | -0.102

Row | Sequence | PBM E-score
23 | CTAGGAAA | -0.0194
24 | CAGGGGGG | -0.5
25 | AGCTATTG | 0.01
26 | CCTACCGC | -0.217
27 | AGGTGTTC | -0.0429
28 | ATGTCGCA | 0.0675
29 | CAGAGGGA | -0.285
30 | AGTCGTTG | -0.206
31 | ATACGCGC | 0.112
32 | CGGAACAC | 0.177
33 | AAGAAGAA | 0.0684
34 | GCGATATA | 0.186
35 | ACTTCCTG | -0.00107
36 | CGATGCAG | 0.00604
37 | GAATCAAA | 0.142
38 | ATACTTAC | 0.123
39 | TAATGCCA | 0.17
40 | GCCTCAAC | -0.161
41 | ACTTATCA | 0.0834
42 | ATAAGGGG | -0.0144
43 | TAGACACA | -0.214
44 | AGTTGTCA | 0.164

Retrieved one by one from the list above (6):
Row | Sequence | PBM E-score
44 | AGTTGTCA | 0.164
37 | GAATCAAA | 0.142
40 | GCCTCAAC | -0.161
29 | CAGAGGGA | -0.285
38 | ATACTTAC | 0.123
41 | ACTTATCA | 0.0834

(list continues)

Row | Sequence | PBM E-score
45 | TCTATCCA | -0.0429
46 | TCCTCGCA | -0.148
47 | CAAAGATG | 0.0671
48 | CCATCCTC | -0.0966
49 | AGTCCTGG | -0.265
50 | AACTTTGA | -0.0127
51 | AGGAAAGA | -0.0533
52 | ACCCGTCG | -0.229
53 | AGCACTCG | -0.125
54 | CGCATCTC | -0.00049
55 | ACGGATAA | 0.217
56 | CCACTTCC | 0.00019
57 | ATCAAGAC | 0.0454
58 | AGTTTGAC | 0.0475
59 | GACCCATC | -0.0756
60 | GAAACACA | -0.0441
61 | CGCGGAAA | 0.076
62 | CAGCGACA | -0.141
63 | CGCAGAAC | -0.03
64 | CTGCTGCA | -0.031
65 | CATTTCGG | -0.078
66 | CTCTACGA | -0.111

Row | Sequence | PBM E-score
67 | TACATAGA | 0.151
68 | AGCCTCCG | -0.212
69 | CCACGCTA | -0.101
70 | CAGTGTCA | 0.00366
71 | ACAGGTTG | -0.119
72 | CCGTTTCA | 0.00209
73 | GATACTAA | 0.184
74 | AAGTCATA | 0.187
75 | GATTGGAA | -0.0265
76 | AACCGGCG | 0.0766
77 | GTCTCACA | -0.0506
78 | AGAGGGGA | -0.218
79 | ATGGAAAG | 0.168
80 | GCAACCGC | -0.0187
81 | ACGCAAGA | 0.0353
82 | TCCTCAAA | -0.246
83 | CGCTCCCC | -0.372
84 | AGGGTAAT | 0.098
85 | ACGATTCA | -0.0333
86 | GGCCGACC | -0.211
